Measurements: PubChem BioAssay AID1347076 (National Center for Advancing Translational Sciences (NCATS), 2019)
Out of some 400,000 compounds screened, about 13,000 (3.2%) were called active. This list was built around the results that the source calls inconclusive (neither active nor inactive); the mix of calls is not that of the screen. The call rests on the fitted dose curve; in most records, active means well fitted cell-killing curve with a large enough effect; inconclusive means small, poorly fitted or top-dose-only effect, or effect the other way; inactive means flat fitted curve, though single readings scatter. Potencies beside an inconclusive call are fits to weak or partial responses and may not hold up.

Assay: qHTS assay for MDR1-selective chemotherapeutics: Primary screen using the drug-selected MDR subline cells KB-V1; further: nearly all actives have a fitted effect of over 60% in size
Settings: KB-V1 MDR cells viability, CellTiter-Glo, 72 h; activity change, negative = cytotoxicity: at 46.1 µM (top of the series)
Outline: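 Readout: CellTiter-Glo luminescence, 10 min after addition. Cells: KB-V1 MDR subline, 72 h at 37 degrees C with compound. Analysis: corrected, normalized data fitted to concentration-effect curves.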
On the % scale 0 is the no-effect control and ±100 the full control effect; potency means the concentration at half of the fitted maximal effect.

SMILES	Potency	activity change, negative = cytotoxicity
COc1ccc(-n2c(SCc3ccc([N+](=O)[O-])cc3)nnc2-c2ccc(C)cc2)cc1	inconclusive: 23.1 µM [cytotoxic, single point]	
N#Cc1ccccc1-n1c(N)c(C(=O)N2CCCC2)sc1=S	active: 16.4 µM	
C=C(C)Cn1c(N2CCN(c3ccc(OC)cc3)CC2)nc2c1c(=O)n(C)c(=O)n2C	inconclusive: 6.51 µM [cytotoxic, partial curve]	
COc1ccc(Cl)cc1Cn1c(C)c(C(=O)NCc2cccc(C(F)(F)F)c2)sc1=O	inconclusive: 16.4 µM [cytotoxic, partial curve]	
Cc1ccnc(NC(=O)c2cc([N+](=O)[O-])cc([N+](=O)[O-])c2)c1	inactive	
CCOc1ccccc1NCc1nnc2n1CCCCC2	inconclusive: 29.1 µM [rising, single point]	
CCOC(=O)N1CCN(C(=O)C2COc3ccccc3O2)CC1 (stereo unspecified)	inactive	
CCOC(=O)C1=C(C)NC(=O)NC1c1ccc(-c2ccc(Cl)cc2)o1 (stereo unspecified)	active: 20.6 µM	
O=C(NC(=S)NCCC1=CCCCC1)c1cncc(Br)c1	inconclusive: 0.0058 µM [cytotoxic, full curve, poor fit]	
CCOC(=O)c1cnc2ccc(OCC)cc2c1N1CCN(c2ccccc2)CC1	inconclusive: 16.4 µM [cytotoxic, partial curve, poor fit]	
CCCN(CCC)CC(O)Cn1c2ccccc2c2ccccc21 (stereo unspecified)	inactive	
Cc1cc(C[n+]2cc(Cl)ccc2N)c2ncccc2c1	inactive	
Cc1nc(CSc2nc3[nH]ncc3c(=O)n2-c2ccccc2)cs1	inactive	
CCOC(=O)C1CCN(C(=O)c2ccc(Cl)c(S(=O)(=O)N3CCCC3)c2)CC1	inconclusive: 18.4 µM [cytotoxic, partial curve, poor fit]	
Cc1ccc(CNS(=O)(=O)c2c(C)nc3sc(C)cn3c2=O)cc1	inactive	
COc1ccc2[nH]c3c(=O)n(CCc4ccccc4)cnc3c2c1	inconclusive: 1.3 µM [rising, full curve]	
O=C(COC(=O)CCNS(=O)(=O)c1ccc(Cl)cc1)NCc1ccco1	inconclusive: 4.11 µM [rising, partial curve, poor fit]	
c1ccc2c(c1)[nH]c1c(N3CCC4(CC3)OCCO4)ncnc12	inconclusive: 23.1 µM [cytotoxic, single point]	
Cc1cc(C(=O)CSc2nnc(Nc3ccccc3)s2)c(C)n1CC1CCCO1 (stereo unspecified)	inconclusive: 32.6 µM [cytotoxic, single point]	
CCN(CC)C(=O)c1cccc(-c2csc(C(C)(O)c3cccc(F)c3)n2)c1 (stereo unspecified)	inconclusive: 3.66 µM [cytotoxic, full curve]	
CCC(C)c1ccc(NC(=S)NC2CCN(Cc3ccccc3)CC2)cc1 (stereo unspecified)	inconclusive: 29.1 µM [cytotoxic, partial curve, poor fit]	
Cc1cccc(N2CCN(Cc3nnc(-c4cccc(Br)c4)o3)CC2)c1C	inconclusive: 29.1 µM [rising, single point]	

SMILES	Potency	activity change, negative = cytotoxicity
COC(=O)c1cc(-c2cccc(OC)c2)on1	inconclusive: 29.1 µM [rising, single point]	
O=C(c1cccc(Cl)c1)N1CCCC(c2ccc(Cl)cc2)=N1	inconclusive: 23.1 µM [cytotoxic, partial curve]	
CC(C)C(NS(=O)(=O)c1c(Cl)cccc1Cl)C(=O)OCC(=O)c1c[nH]c2ccccc12 (stereo unspecified)	active: 20.6 µM	
Cc1nc(-c2ccccn2)nc(SCC(=O)c2ccc(F)cc2)c1Cl	inactive	
Cc1cc(C(=O)COC(=O)CC2Sc3ccccc3NC2=O)c(C)n1-c1ccc(Br)cc1 (stereo unspecified)	inconclusive: 14.6 µM [cytotoxic, partial curve]	
Cc1cc(C(=O)N/N=C2\CCCc3ccccc32)c(C)o1	inconclusive: 29.1 µM [rising, single point]	
O=C1NC(=O)C(c2ccccc2)N1 (stereo unspecified)	inconclusive: 32.6 µM [rising, single point]	
O=S(=O)(c1ccc2nc(-c3ccccc3)[nH]c2c1)N1CCN(c2cccc(Cl)c2)CC1	inactive	
CC(C)(C)C1CCC(C(=O)OCC(=O)N2CCN(C(=O)c3ccco3)CC2)CC1 (stereo unspecified)	inactive	
CCCCCC(=O)N1C[C@@H](O)[C@H](n2cc(COC(=O)c3ccccc3)nn2)C[C@@H]1c1ccc(OC)cc1	inactive	
Clc1ccc(-c2nc3c4ccccc4ccn3c2Cc2cccc(Cl)c2)cc1	inconclusive: 18.4 µM [cytotoxic, partial curve, poor fit]	
Cc1csc(SCC(=O)Nc2ccccn2)n1	inconclusive: 29.1 µM [rising, single point]	
O=C(NCc1cccc(Cl)c1)C1CCCN(c2nn3cc(-c4ccc(F)cc4)nc3s2)C1 (stereo unspecified)	inactive	
CC1(CC(=O)N/N=C/c2ccc(-c3cccc(C(F)(F)F)c3)o2)OCCO1	inconclusive: 20.6 µM [cytotoxic, single point]	
Cc1cc(/C=N/n2cnnc2)c(C)n1-c1ccc(OCc2ccc(F)cc2)cc1	inconclusive: 29.1 µM [cytotoxic, single point]	
CN(CC(=O)Nc1ccc(N2CCOCC2)cc1)CC(=O)Nc1ccc(C(F)(F)F)cc1	inconclusive: 14.6 µM [cytotoxic, partial curve, poor fit]	
Cc1noc(C)c1COc1ccccc1C(=O)N(C)Cc1ccc(C(C)(C)C)cc1	inconclusive: 23.1 µM [cytotoxic, single point]	
CCOC(=O)Cn1nc(/C=C/c2ccc(C)cc2)ccc1=O	inconclusive: 29.1 µM [cytotoxic, single point]	
Cc1[nH]c2ccccc2c1/C=C/C(=O)c1ccccc1	inconclusive: 18.4 µM [cytotoxic, single point]	
C[C@@H]1CN([C@H](C)CO)S(=O)(=O)c2ccc(C#CC3CCCCC3)cc2O[C@H]1CN(C)C(=O)Cc1ccncc1	inactive	
CC(C)C(=O)Nc1nnc(SCC(=O)Nc2ccc3c(c2)OCO3)s1	inconclusive: 18.4 µM [cytotoxic, single point]	
CCOc1cc(S(=O)(=O)n2nc(C)cc2C)ccc1Br	inconclusive: 9.2 µM [cytotoxic, partial curve]	

SMILES	Potency	activity change, negative = cytotoxicity
COc1ccc(C(=O)N/N=C2/SCC(=O)N2Cc2ccc3c(c2)OCO3)cc1OC	inconclusive: 23.1 µM [cytotoxic, partial curve]	
O=C(CN1C(=O)c2ccc([N+](=O)[O-])cc2C1=O)NCCC1=CCCCC1		inconclusive: 38.7%
COc1ccccc1Cc1nc2ccccc2nc1SCC(=O)Nc1c(C)cccc1C		inconclusive: -0.446%
COc1ccccc1NS(=O)(=O)c1cc(NC(=O)c2ccncc2)ccc1N1CCCC1	inconclusive: 16.4 µM [cytotoxic, single point]	
COc1ccc(NC(=O)c2cc(-c3ccc(F)cc3)no2)cc1OC	inconclusive: 10.3 µM [rising, partial curve, poor fit]	
Cc1c(Cl)cccc1NC(=O)Cn1c(=O)cc(C)c2c(C)nn(-c3cccc(F)c3)c21	inactive	
Cc1cccc(Cn2c(N3CCCCC3C)nc3c2c(=O)[nH]c(=O)n3C)c1 (stereo unspecified)	inconclusive: 29.1 µM [cytotoxic, single point]	
CCCCCCCCCCOC(=O)Cn1c(COc2ccccc2C)[n+](C)c2ccccc21	inactive	
CCC(=O)N1CCN(c2ccccc2NC(=O)COc2ccccc2Cl)CC1	inconclusive: 18.4 µM [cytotoxic, partial curve, poor fit]	
CCc1noc(C)c1C(=O)Nc1nc(-c2ccc(Cl)cc2Cl)cs1	inconclusive: 20.6 µM [cytotoxic, single point]	
COc1cccc(/C=N/NC(=O)c2cccc([N+](=O)[O-])c2)c1OS(=O)(=O)c1ccccc1	active: 10.3 µM	
Cc1n[nH]c(C)c1S(=O)(=O)N1CCCC(C(=O)N2CCN(c3ccc(Cl)cc3)CC2)C1 (stereo unspecified)	inconclusive: 18.4 µM [cytotoxic, partial curve]	
CN(C)CCN(Cc1ccccc1)S(=O)(=O)c1csc(C(N)=O)c1		inconclusive: 0.108%
Cc1ccc(N(C(=O)c2csnn2)C(C(=O)NC2CCCCC2)c2ccccn2)cc1C (stereo unspecified)	inconclusive: 16.4 µM [cytotoxic, partial curve, poor fit]	
COc1ccccc1C(=O)Nc1ccc2c(c1)nc(CCNC(=O)c1ccco1)n2C	inconclusive: 2.59 µM [cytotoxic, full curve, poor fit]	
O=C1C(Cc2cccc([N+](=O)[O-])c2)SC(=Nc2ccccc2)N1c1ccccc1 (stereo unspecified)	active: 20.6 µM	
COCCOc1cc(NCc2ccccc2)c2ncn(C(C)C)c2c1	inconclusive: 25.9 µM [cytotoxic, partial curve, poor fit]	
Cc1ccc(NC(=O)c2oc3ccccc3c2COC(C)C)cc1S(=O)(=O)N1CCOCC1	inconclusive: 18.4 µM [cytotoxic, single point]	
COc1ccccc1NC(=S)N(Cc1ccco1)Cc1cc2cccc(C)c2[nH]c1=O	inconclusive: 7.31 µM [cytotoxic, partial curve]	
CCOc1ccc(N(CC(=O)NCc2ccccc2)S(=O)(=O)c2ccc(C)cc2)cc1	inconclusive: 8.2 µM [cytotoxic, partial curve]	
Nc1ccccc1SC(CC(=O)c1ccccc1)c1cccc([N+](=O)[O-])c1 (stereo unspecified)	inconclusive: 29.1 µM [cytotoxic, single point]	
CCc1ccc2oc(C(=O)Nc3cccnc3)c(C)c2c1	inconclusive: 29.1 µM [cytotoxic, single point]	

Five of these compounds in another layout.
SMILES,Potency,"activity change, negative = cytotoxicity"
Cc1n[nH]c(C)c1S(=O)(=O)N1CCCC(C(=O)N2CCN(c3ccc(Cl)cc3)CC2)C1 (stereo unspecified),"inconclusive: 18.4 µM [cytotoxic, partial curve]",
CN(C)CCN(Cc1ccccc1)S(=O)(=O)c1csc(C(N)=O)c1,,inconclusive: 0.108%
Cc1ccc(N(C(=O)c2csnn2)C(C(=O)NC2CCCCC2)c2ccccn2)cc1C (stereo unspecified),"inconclusive: 16.4 µM [cytotoxic, partial curve, poor fit]",
COc1ccccc1C(=O)Nc1ccc2c(c1)nc(CCNC(=O)c1ccco1)n2C,"inconclusive: 2.59 µM [cytotoxic, full curve, poor fit]",
O=C1C(Cc2cccc([N+](=O)[O-])c2)SC(=Nc2ccccc2)N1c1ccccc1 (stereo unspecified),active: 20.6 µM,
